{
  "source": "patent US20110059177A1",
  "about": "“Cardioplegia Solution for Cardiac Surgery” (priority 2008, published 2011)",
  "origin": "cited, not measured here",
  "key": {"[1]": {"test_system": "axotomized retinal ganglion cells (RGCs)", "settings": "following optic nerve axotomy"}, "[2]": {"test_system": "mitochondria isolated suspensions"}},
  "note": "At least one compound was matched to its structure with a doubt left.",
  "data": [
    {"smiles": "CN(C)c1ccc(O)c2c1C[C@H]1C[C@H]3[C@H](N(C)C)C(O)=C(C(N)=O)C(=O)[C@@]3(O)C(O)=C1C2=O", "note": "[Minocycline]", "values": [
      {"measurement": "neuroprotective efficacy compared with tetracycline", "setting": "[1]", "value": "superior to that of tetracycline"},
      {"measurement": "block of mitochondrial swelling induced by calcium", "setting": "[2]", "value": "effective in blocking"},
      {"measurement": "block of superoxide-induced mitochondrial swelling", "setting": "[2]", "value": "failed to block"}
    ]}
  ]
}
